Assay results as given in article PMC9363427, “The SWI/SNF chromatin remodeling factor DPF3 regulates metastasis of ccRCC by modulating TGF-β signaling” (Nature Communications, 2022).
No constants are given. Whether binding was seen depends on the method and setting. In cells and extracts the contact can be indirect. A yes stands for co-enrichment or nearness to the bait. Other partners may have been found. Where a sequence is shown, tags or fusion partners need not be part of it.

Protein sequences, listed by entry. Tags and fused reporters are not part of them. Residues count along the entry.
UniProt P02545, residues 1-646: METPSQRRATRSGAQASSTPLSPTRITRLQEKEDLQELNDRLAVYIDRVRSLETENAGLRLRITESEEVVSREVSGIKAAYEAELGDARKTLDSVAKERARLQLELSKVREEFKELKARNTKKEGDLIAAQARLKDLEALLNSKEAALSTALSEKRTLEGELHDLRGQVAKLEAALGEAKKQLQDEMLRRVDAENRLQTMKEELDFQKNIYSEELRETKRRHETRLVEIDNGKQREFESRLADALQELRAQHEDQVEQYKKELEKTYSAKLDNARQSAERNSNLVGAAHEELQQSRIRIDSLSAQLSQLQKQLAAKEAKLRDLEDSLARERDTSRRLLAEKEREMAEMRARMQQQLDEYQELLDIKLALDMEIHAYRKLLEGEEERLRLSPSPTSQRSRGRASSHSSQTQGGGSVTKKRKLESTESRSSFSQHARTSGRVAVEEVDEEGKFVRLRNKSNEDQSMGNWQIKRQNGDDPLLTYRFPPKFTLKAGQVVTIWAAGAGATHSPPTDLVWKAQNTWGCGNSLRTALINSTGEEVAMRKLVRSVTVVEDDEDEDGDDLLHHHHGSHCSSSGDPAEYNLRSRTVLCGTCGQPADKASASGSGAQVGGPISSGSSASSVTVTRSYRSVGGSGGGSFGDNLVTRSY
UniProt Q9NVP2: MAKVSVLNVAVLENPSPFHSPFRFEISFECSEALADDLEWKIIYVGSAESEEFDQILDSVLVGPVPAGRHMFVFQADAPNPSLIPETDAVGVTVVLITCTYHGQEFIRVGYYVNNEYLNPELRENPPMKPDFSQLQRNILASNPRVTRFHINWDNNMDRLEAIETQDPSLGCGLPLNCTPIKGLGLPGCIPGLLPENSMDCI
UniProt Q96GM5: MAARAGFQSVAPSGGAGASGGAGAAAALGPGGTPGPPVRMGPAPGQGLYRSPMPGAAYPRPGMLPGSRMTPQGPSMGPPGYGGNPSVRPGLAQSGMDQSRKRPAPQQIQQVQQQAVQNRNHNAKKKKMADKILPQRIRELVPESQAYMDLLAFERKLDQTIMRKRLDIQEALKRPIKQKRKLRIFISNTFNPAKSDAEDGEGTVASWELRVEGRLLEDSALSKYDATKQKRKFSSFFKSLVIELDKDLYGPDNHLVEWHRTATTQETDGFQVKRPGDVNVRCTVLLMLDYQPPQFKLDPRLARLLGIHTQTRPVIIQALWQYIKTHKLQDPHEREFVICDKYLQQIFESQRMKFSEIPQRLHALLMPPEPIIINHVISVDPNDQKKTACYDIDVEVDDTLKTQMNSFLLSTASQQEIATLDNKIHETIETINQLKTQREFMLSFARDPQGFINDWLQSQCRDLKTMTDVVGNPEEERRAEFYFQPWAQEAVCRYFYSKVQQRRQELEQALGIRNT
UniProt Q92925: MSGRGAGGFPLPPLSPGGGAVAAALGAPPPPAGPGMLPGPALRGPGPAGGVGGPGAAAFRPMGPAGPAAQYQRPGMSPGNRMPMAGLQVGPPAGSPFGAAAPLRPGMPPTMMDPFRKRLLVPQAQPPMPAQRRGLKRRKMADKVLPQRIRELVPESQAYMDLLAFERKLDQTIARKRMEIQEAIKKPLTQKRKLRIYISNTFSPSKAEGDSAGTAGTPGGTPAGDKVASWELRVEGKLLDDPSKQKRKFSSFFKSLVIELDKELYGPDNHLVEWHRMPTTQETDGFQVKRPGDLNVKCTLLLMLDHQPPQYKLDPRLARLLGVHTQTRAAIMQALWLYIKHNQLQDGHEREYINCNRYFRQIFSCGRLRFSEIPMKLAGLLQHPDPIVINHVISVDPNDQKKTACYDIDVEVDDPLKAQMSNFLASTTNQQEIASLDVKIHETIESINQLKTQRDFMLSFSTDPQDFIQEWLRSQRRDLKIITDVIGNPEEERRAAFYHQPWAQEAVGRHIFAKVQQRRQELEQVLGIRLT
UniProt Q969G3: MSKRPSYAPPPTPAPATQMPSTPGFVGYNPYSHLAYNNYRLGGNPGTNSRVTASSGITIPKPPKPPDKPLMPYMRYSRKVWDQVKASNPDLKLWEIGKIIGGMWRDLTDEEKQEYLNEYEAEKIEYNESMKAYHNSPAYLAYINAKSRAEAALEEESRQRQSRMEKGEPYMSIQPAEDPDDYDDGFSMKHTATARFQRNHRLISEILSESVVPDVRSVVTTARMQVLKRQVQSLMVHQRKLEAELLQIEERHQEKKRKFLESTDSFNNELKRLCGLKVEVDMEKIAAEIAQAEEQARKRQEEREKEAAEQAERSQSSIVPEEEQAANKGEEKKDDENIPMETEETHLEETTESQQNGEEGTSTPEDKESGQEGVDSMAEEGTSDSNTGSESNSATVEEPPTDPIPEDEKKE
UniProt P68366: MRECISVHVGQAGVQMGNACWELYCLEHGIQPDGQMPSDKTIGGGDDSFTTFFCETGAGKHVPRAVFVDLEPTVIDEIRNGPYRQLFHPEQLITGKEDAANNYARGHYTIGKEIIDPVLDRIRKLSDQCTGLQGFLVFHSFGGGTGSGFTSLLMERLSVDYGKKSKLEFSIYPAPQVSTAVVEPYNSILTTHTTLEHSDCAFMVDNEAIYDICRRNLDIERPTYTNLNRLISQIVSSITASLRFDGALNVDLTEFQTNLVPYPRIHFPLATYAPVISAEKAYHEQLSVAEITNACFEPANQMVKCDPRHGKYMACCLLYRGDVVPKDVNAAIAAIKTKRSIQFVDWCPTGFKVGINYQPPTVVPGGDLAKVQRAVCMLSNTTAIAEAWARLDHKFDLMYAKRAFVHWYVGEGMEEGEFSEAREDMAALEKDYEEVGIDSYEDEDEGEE
UniProt O96019: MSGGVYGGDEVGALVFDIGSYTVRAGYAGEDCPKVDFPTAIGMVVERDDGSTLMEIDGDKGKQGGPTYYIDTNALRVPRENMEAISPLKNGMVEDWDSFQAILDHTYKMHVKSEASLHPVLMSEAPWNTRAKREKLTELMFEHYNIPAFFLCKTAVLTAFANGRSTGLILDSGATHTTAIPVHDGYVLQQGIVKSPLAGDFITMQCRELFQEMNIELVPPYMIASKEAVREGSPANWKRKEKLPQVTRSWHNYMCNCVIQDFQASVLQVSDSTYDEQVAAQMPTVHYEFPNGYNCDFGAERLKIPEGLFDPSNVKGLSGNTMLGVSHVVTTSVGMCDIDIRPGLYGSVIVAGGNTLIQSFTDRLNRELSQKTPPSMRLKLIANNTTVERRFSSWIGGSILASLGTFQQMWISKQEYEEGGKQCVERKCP
UniProt P11182, residues 62-482: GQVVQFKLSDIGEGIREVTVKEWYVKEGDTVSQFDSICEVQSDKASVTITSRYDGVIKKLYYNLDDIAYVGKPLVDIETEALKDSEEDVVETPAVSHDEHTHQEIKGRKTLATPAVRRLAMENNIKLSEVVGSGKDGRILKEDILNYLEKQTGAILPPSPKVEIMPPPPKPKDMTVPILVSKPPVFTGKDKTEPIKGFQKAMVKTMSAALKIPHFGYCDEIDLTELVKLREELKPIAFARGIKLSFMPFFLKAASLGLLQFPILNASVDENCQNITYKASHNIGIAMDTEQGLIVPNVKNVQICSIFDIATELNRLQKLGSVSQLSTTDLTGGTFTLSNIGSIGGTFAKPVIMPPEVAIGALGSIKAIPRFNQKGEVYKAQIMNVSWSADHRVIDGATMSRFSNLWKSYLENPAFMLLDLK
UniProt Q6STE5: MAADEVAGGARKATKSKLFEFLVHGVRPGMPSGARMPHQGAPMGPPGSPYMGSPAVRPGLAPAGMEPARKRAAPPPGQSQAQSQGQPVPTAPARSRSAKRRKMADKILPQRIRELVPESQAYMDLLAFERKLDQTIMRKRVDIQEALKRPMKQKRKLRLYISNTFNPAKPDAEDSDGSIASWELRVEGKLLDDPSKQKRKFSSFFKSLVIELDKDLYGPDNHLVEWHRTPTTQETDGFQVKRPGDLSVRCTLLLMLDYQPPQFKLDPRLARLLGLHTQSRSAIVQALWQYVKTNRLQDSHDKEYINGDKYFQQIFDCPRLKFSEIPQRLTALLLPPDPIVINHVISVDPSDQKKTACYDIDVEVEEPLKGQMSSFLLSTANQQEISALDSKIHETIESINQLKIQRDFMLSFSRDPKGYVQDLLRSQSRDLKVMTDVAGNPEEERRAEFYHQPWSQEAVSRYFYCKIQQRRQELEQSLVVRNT
UniProt Q8TAQ2: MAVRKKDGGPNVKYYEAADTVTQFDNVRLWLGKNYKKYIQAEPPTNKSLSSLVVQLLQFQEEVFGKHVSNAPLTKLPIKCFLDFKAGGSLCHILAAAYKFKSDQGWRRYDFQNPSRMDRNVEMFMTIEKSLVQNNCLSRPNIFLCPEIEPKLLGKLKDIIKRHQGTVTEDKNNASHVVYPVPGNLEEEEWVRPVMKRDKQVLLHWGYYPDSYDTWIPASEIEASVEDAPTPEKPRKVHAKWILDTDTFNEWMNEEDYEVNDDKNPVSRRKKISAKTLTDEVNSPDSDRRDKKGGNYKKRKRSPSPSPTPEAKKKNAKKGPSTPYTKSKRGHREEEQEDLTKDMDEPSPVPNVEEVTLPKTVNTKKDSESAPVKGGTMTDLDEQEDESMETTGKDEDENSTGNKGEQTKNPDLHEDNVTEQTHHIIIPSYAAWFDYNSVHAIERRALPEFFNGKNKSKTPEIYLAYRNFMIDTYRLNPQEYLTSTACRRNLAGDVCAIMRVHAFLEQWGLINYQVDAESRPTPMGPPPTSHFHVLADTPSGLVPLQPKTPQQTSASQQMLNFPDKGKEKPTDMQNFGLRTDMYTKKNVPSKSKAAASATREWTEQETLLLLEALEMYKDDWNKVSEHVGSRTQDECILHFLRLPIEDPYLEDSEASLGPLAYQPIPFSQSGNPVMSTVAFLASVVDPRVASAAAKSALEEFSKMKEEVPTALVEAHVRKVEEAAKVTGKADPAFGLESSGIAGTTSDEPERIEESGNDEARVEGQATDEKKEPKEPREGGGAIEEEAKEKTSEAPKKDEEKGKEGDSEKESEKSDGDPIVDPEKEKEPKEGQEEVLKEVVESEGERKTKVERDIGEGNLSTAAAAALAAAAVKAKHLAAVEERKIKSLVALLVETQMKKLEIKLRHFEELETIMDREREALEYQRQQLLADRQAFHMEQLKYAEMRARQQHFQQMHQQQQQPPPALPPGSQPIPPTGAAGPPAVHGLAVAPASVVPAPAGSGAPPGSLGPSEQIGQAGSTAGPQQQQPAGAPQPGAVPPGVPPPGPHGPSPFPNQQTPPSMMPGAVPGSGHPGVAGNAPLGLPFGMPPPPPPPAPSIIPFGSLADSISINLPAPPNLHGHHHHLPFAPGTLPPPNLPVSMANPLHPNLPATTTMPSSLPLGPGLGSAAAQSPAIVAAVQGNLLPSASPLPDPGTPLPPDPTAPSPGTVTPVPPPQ
UniProt Q9UDY4: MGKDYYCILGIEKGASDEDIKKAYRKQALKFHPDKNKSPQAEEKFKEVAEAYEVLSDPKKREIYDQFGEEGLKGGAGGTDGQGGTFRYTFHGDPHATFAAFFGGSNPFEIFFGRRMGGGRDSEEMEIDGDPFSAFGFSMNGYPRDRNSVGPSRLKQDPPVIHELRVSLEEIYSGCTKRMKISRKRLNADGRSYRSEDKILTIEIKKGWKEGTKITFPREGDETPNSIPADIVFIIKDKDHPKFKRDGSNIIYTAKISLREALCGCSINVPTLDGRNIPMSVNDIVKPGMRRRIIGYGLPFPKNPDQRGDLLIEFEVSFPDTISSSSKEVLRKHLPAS
UniProt Q12824: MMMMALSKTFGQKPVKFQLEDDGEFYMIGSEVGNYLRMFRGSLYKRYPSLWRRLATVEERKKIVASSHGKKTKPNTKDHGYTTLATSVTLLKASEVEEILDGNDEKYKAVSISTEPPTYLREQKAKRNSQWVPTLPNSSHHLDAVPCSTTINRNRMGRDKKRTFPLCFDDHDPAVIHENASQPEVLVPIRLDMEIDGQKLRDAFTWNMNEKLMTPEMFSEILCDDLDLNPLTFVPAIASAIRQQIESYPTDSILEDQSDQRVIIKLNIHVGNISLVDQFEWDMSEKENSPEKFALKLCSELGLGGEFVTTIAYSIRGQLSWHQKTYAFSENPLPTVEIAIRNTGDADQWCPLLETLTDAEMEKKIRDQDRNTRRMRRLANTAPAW
UniProt Q8WVM0, residues 28-346: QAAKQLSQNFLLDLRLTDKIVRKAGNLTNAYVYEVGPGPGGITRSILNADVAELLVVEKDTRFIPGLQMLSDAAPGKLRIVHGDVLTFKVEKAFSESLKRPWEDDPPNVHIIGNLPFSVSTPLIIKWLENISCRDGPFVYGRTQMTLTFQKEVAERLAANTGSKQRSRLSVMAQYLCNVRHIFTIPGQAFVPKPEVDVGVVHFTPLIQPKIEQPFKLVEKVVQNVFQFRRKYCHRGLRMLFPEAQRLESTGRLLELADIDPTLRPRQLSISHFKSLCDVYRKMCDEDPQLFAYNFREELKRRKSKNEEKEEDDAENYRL

T1: HA-tagged DPF3a (786-O cells) (human) (UniProt Q92784)
T1 sequence: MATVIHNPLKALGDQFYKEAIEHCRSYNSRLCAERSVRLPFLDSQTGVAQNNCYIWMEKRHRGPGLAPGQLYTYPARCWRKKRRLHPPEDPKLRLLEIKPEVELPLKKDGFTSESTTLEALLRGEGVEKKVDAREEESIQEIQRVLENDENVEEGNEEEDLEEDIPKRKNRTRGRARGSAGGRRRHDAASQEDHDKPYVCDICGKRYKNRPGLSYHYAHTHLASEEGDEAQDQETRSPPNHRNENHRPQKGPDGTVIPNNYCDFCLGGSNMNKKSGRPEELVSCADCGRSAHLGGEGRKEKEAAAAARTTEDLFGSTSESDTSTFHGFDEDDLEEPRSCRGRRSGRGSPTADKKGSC

B1: Lysozyme; Lysozyme C (protein, UniProt P61626 19-148)
chain: KVFERCELARTLKRLGMDGYRGISLANWMCLAKWESGYNTRATNYNAGDRSTDYGIFQINSRYWCNDGKTPGAVNACHLSCSALLQDNIADAVACAKRVVRDPQGIRAWVAWRNRCQNRDVRQYVQGCGV
B2: 14-3-3 protein theta (protein, UniProt P27348 1-245)
chain: MEKTELIQKAKLAEQAERYDDMATCMKAVTEQGAELSNEERNLLSVAYKNVVGGRRSAWRVISSIEQKTDTSDKKLQLIKDYREKVESELRSICTTVLELLDKYLIANATNPESKVFYLKMKGDYFRYLAEVACGDDRKQTIDNSQGAYQEAFDISKKEMQPTHPIRLGLALNFSVFYYEILNNPELACTLAKTAFDEAIAELDTLNEDSYKDSTLIMQLLRDNLTLWTSDSAGEECDAAEGAEN
B3: ATP-dependent 6-phosphofructokinase, liver type (protein, UniProt P17858 1-780)
chain: MAAVDLEKLRASGAGKAIGVLTSGGDAQGMNAAVRAVTRMGIYVGAKVFLIYEGYEGLVEGGENIKQANWLSVSNIIQLGGTIIGSARCKAFTTREGRRAAAYNLVQHGITNLCVIGGDGSLTGANIFRSEWGSLLEELVAEGKISETTARTYSHLNIAGLVGSIDNDFCGTDMTIGTDSALHRIMEVIDAITTTAQSHQRTFVLEVMGRHCGYLALVSALASGADWLFIPEAPPEDGWENFMCERLGETRSRGSRLNIIIIAEGAIDRNGKPISSSYVKDLVVQRLGFDTRVTVLGHVQRGGTPSAFDRILSSKMGMEAVMALLEATPDTPACVVTLSGNQSVRLPLMECVQMTKEVQKAMDDKRFDEATQLRGGSFENNWNIYKLLAHQKPPKEKSNFSLAILNVGAPAAGMNAAVRSAVRTGISHGHTVYVVHDGFEGLAKGQVQEVGWHDVAGWLGRGGSMLGTKRTLPKGQLESIVENIRIYGIHALLVVGGFEAYEGVLQLVEARGRYEELCIVMCVIPATISNNVPGTDFSLGSDTAVNAAMESCDRIKQSASGTKRRVFIVETMGGYCGYLATVTGIAVGADAAYVFEDPFNIHDLKVNVEHMTEKMKTDIQRGLVLRNEKCHDYYTTEFLYNLYSSEGKGVFDCRTNVLGHLQQGGAPTPFDRNYGTKLGVKAMLWLSEKLREVYRKGRVFANAPDSACVIGLKKKAVAFSPVTELKKDTDFEHRMPREQWWLSLRLMLKMLAQYRISMAAYVSGELEHVTRRTLSMDKGF
B4: CTP synthase 1 (protein, UniProt P17812 1-591)
chain: MKYILVTGGVISGIGKGIIASSVGTILKSCGLHVTSIKIDPYINIDAGTFSPYEHGEVFVLDDGGEVDLDLGNYERFLDIRLTKDNNLTTGKIYQYVINKERKGDYLGKTVQVVPHITDAIQEWVMRQALIPVDEDGLEPQVCVIELGGTVGDIESMPFIEAFRQFQFKVKRENFCNIHVSLVPQPSSTGEQKTKPTQNSVRELRGLGLSPDLVVCRCSNPLDTSVKEKISMFCHVEPEQVICVHDVSSIYRVPLLLEEQGVVDYFLRRLDLPIERQPRKMLMKWKEMADRYDRLLETCSIALVGKYTKFSDSYASVIKALEHSALAINHKLEIKYIDSADLEPITSQEEPVRYHEAWQKLCSAHGVLVPGGFGVRGTEGKIQAIAWARNQKKPFLGVCLGMQLAVVEFSRNVLGWQDANSTEFDPTTSHPVVVDMPEHNPGQMGGTMRLGKRRTLFQTKNSVMRKLYGDADYLEERHRHRFEVNPVWKKCLEEQGLKFVGQDVEGERMEIVELEDHPFFVGVQYHPEFLSRPIKPSPPYFGLLLASVGRLSHYLQKGCRLSPRDTYSDRSGSSSPDSEITELKFPSINHD
B5: SMAD nuclear-interacting protein 1 (endogenous, 786-O) (protein, UniProt Q8TAD8 1-396)
chain: MKAVKSERERGSRRRHRDGDVVLPAGVVVKQERLSPEVAPPAHRRPDHSGGSPSPPTSEPARSGHRGNRARGVSRSPPKKKNKASGRRSKSPRSKRNRSPHHSTVKVKQEREDHPRRGREDRQHREPSEQEHRRARNSDRDRHRGHSHQRRTSNERPGSGQGQGRDRDTQNLQAQEEEREFYNARRREHRQRNDVGGGGSESQELVPRPGGNNKEKEVPAKEKPSFELSGALLEDTNTFRGVVIKYSEPPEARIPKKRWRLYPFKNDEVLPVMYIHRQSAYLLGRHRRIADIPIDHPSCSKQHAVFQYRLVEYTRADGTVGRRVKPYIIDLGSGNGTFLNNKRIEPQRYYELKEKDVLKFGFSSREYVLLHESSDTSEIDRKDDEDEEEEEEVSDS

target: T1, HA-tagged DPF3a (786-O cells) (human); test: affinity purification with mass spectrometry; lysate of 786-O cells with and without HA-tagged DPF3a; immunoprecipitation with anti-HA beads for two hours, three washes with TBST, on-beads trypsin digestion, label-free quantification

binding, binds:
Lamin A/C (from UniProt P02545 1-646)
Histone chaperone ASF1B (from UniProt Q9NVP2 1-202)
SWI/SNF complex subunit SMARCD1 (from UniProt Q96GM5 1-515)
SWI/SNF complex subunit SMARCD2 (from UniProt Q92925 1-531)
Putative lipocalin 1-like protein 1;Lipocalin 1 (human (endogenous in 786-O))
U2 snRNP-associated SURP motif-containing protein (from UniProt O15042 1-1029)
SWI/SNF complex subunit SMARCE1 (from UniProt Q969G3 1-411)
SWI/SNF complex subunit SMARCA4 (from UniProt P51532 1-1647)
Tubulin alpha-4A chain (from UniProt P68366 1-448)
Actin-like protein 6A (from UniProt O96019 1-429)
Dihydrolipoamide Branched Chain Transacylase (from UniProt P11182 62-482)
SWI/SNF complex subunit SMARCA2 (from UniProt P51531 1-1590)
SWI/SNF complex subunit SMARCC1 (from UniProt Q92922 1-1105)
SWI/SNF complex subunit SMARCD3 (from UniProt Q6STE5 1-483)
Glycogen phosphorylase, brain form/muscle form (human (endogenous in 786-O))
SWI/SNF complex subunit SMARCC2 (from UniProt Q8TAQ2 1-1214)
DnaJ homolog subfamily B member 4 (from UniProt Q9UDY4 1-337)
SWI/SNF complex subunit SMARCB1 (from UniProt Q12824 1-385)
Dimethyladenosine transferase 1, mitochondrial (from UniProt Q8WVM0 28-346)
B1
B2
B3
B4
B5
